Source: article PMC11263707
No constants are given. Whether binding was seen depends on the method and setting. In cells and extracts the contact can be indirect. Some binding calls cover weakened binding; strength is not graded here. For some of these results: Tags and fused reporters may be left off the sequences shown.

Protein sequences, listed by entry. Tags and fused reporters are not part of them.
UniProt P06748: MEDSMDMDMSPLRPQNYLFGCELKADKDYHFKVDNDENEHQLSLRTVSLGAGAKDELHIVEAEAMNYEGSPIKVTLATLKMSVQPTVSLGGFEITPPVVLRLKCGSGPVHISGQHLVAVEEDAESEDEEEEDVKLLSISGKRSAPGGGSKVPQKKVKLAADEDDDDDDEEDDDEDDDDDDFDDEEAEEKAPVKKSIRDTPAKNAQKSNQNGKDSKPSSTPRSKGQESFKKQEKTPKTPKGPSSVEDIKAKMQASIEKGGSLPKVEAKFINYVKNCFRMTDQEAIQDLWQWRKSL

Tests used:
Flag-ALDH9A1 (human) [1] = target: T1, Flag-ALDH9A1 (human) (UniProt P49189); experiment: co-IP; anti-flag immunoprecipitation from A498 and CAKI-1 cells with Flag-ALDH9A1; western blot for the endogenous candidates of the LC-MS/MS
T1 sequence: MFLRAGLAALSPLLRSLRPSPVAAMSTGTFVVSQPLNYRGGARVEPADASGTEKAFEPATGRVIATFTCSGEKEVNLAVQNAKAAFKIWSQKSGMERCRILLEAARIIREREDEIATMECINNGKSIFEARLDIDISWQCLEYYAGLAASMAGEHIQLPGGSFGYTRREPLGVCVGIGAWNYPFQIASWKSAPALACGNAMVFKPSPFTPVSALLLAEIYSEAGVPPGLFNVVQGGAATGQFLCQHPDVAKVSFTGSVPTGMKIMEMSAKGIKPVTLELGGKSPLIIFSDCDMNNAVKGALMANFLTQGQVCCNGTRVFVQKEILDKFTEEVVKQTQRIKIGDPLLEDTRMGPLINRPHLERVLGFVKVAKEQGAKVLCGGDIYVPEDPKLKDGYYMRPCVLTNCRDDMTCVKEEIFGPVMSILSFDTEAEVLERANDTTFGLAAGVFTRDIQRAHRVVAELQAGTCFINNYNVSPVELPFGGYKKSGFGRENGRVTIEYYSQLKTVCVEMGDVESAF

[2] = target: ALDH9A1 (endogenous) (human (endogenous in HEK293T, A498, CAKI-1)) (UniProt P49189); experiment: co-IP; endogenous proteins; antibody to ALDH9A1 or to NPM1 or IgG, lysate of HEK293T cells (repeated in A498 and CAKI-1 cells); protein A/G magnetic beads, overnight at 4 °C, RIPA wash; western blot
Flag-ALDH9A1 (human) [3] = target: T1, Flag-ALDH9A1 (human); experiment: co-IP; Flag-ALDH9A1 and Myc-NPM1 forced expressed in A498 and CAKI-1 cells; Flag immunoprecipitation and Myc immunoprecipitation; western blot
[4] = target: nucleophosmin 1 (NPM1), endogenous (human (endogenous in HEK293T, A498, CAKI-1)) (UniProt P06748); experiment: co-IP; endogenous proteins; antibody to ALDH9A1 or to NPM1 or IgG, lysate of HEK293T cells (repeated in A498 and CAKI-1 cells); protein A/G magnetic beads, overnight at 4 °C, RIPA wash; western blot

**Q.** “nucleophosmin 1 (NPM1), endogenous (from UniProt P06748 1-294)” was tested. Which binding (Flag-ALDH9A1 (human) [1]) did it give?
**A.** Its binding is “binds”.

**Q.** And the binding [2]?
**A.** Its binding is “binds”.

**Q.** Myc-NPM1 (from UniProt P06748 1-294) was tested. Which binding (Flag-ALDH9A1 (human) [3]) did it give?
**A.** Its binding is “binds”.

**Q.** With “ALDH9A1 (endogenous) (from UniProt P49189 1-494) (enzyme)” as the substance, how does the binding [4] read?
**A.** Its binding is “binds”.
